Source: PubChem BioAssay AID504444 (National Center for Advancing Translational Sciences (NCATS), 2011)
In all, about 360,000 compounds went through this assay and about 7,500 (2.1%) were called active. This list was built around the results that the source calls inconclusive (neither active nor inactive); the mix of calls is not that of the screen. The call rests on the fitted dose curve; in most records, active means well fitted inhibition curve with a large enough effect; inconclusive means small, poorly fitted or top-dose-only effect, or effect the other way; inactive means flat fitted curve, though single readings scatter. Potencies beside an inconclusive call are fits to weak or partial responses and may not hold up.

Test: Nrf2 qHTS screen for inhibitors; further: nearly all actives have a fitted effect of over 60% in size
Settings: A549 ARE-Fluc reporter, luciferase luminescence, 18-24 h; series mostly up to 46 µM
In short: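 Quantitative HTS in A549 cells stably bearing an antioxidant response element-firefly luciferase construct. Inhibition of Nrf2-driven transcription was scored by luminescence after 18-24 h of compound exposure at 37 °C.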
Potency means the concentration at half of the fitted maximal effect.

Q: With Cc1c(Cl)cccc1NC(=O)C(C)n1nc(C)c2c(C)n(-c3ccccc3)nc2c1=O (configuration not stated) as the compound, how does the Potency read?
A: inactive

Q: For CC(=O)NCc1ccc(C(=O)CCl)s1, which Potency is on record?
A: inconclusive: 16.4 µM [falling, partial curve, poor fit]

Q: Which Potency does the source give for Cc1nn(Cc2ccccc2)c(Cl)c1/C=C/C(=O)OC(C)C(=O)N1CCCC1 (configuration not stated) here?
A: inconclusive: 18.4 µM [falling, single point]

Q: With Cc1cc(OCc2nc(-c3ccc(NC(=O)c4cccnc4)cc3)no2)ccc1Cl as the compound, how does the Potency read?
A: inconclusive: 0.82 µM [falling, full curve, poor fit]

Q: Which Potency does the source give for CC(=O)CC(C)(C)NC(C)=S here?
A: inactive

Q: For COc1cccc(/C=N/Nc2nc3ccccc3[nH]2)c1O, which Potency is on record?
A: inactive

Q: With O=C(Nc1nc2ccccc2s1)Nc1ccc(F)cc1F as the compound, how does the Potency read?
A: inconclusive: 20.6 µM [activator, single point]

Q: For Cc1nnc2c(NC3CCCC3)nc3ccccc3n12, which Potency is on record?
A: inconclusive: 20.6 µM [falling, partial curve, poor fit]

Q: For O=C1N=C(N2CCC(Cc3ccccc3)CC2)S/C1=C/c1cn[nH]c1-c1ccccc1, which Potency is on record?
A: inconclusive: 2.31 µM [falling, full curve]

Q: Which Potency does the source give for CC(=O)c1c(C)[nH]c(C(=O)OCC(=O)Nc2cc(C(F)(F)F)ccc2N2CCOCC2)c1C here?
A: inconclusive: 20.6 µM [falling, partial curve, poor fit]

Q: With O=C(COC(=O)c1ccccc1C(=O)c1ccc(Cl)c([N+](=O)[O-])c1)NC1CC1 as the compound, how does the Potency read?
A: inactive

Q: For COc1ccc2cc(C(=O)NCc3ccccc3)[nH]c2c1, which Potency is on record?
A: inconclusive: 20.6 µM [activator, partial curve]

Q: For COCCN(C(=O)CCC(=O)Nc1cc(C)on1)C(C(=O)NC(C)(C)C)c1ccc(OC)cc1 (configuration not stated), which Potency is on record?
A: inconclusive: 23.1 µM [activator, partial curve, poor fit]

Q: With CN(C(=O)CSc1nc2sc3c(c2c(=O)n1C)CCC3)C1CCS(=O)(=O)C1 (configuration not stated) as the compound, how does the Potency read?
A: inconclusive: 1.64 µM [falling, partial curve, poor fit]

Q: For COc1ccccc1CNC(=O)Cn1cc(Br)ccc1=O, which Potency is on record?
A: inconclusive: 29.1 µM [activator, single point]

Q: Which Potency does the source give for O=C(CCc1c[nH]c2ccccc12)N1CCN(c2ccc(O)cc2)CC1 here?
A: inconclusive: 29.1 µM [falling, single point]

Q: For COc1ccccc1N1CCN(C(=O)c2cc3c(s2)-c2ccccc2OC3)CC1, which Potency is on record?
A: inactive

Q: Which Potency does the source give for Cc1ccccc1CN1CCC(CNC(=O)c2cc3ccc4cccnc4c3[nH]2)CC1 here?
A: inconclusive: 18.4 µM [activator, single point]

Q: With CCOc1ccc(N2C(=O)Nc3ccccc3C2(O)C(=O)NCc2ccc(C)cc2)cc1 (configuration not stated) as the compound, how does the Potency read?
A: inconclusive: 23.1 µM [activator, single point]

Q: For COc1ccccc1-c1cc2ccccc2[nH]1, which Potency is on record?
A: inconclusive: 16.4 µM [activator, partial curve]

Q: For Cc1cccc(OCCn2cnc(Cl)c2Cl)c1, which Potency is on record?
A: inconclusive: 4.11 µM [falling, partial curve, poor fit]

Q: Which Potency does the source give for CC(Nc1oc(-c2ccco2)nc1C#N)c1ccccc1 (configuration not stated) here?
A: inactive

Q: Which Potency does the source give for COC(=O)c1c(-c2ccc(SC)cc2)sc2ccc(OC)cc12 here?
A: inconclusive: 10.3 µM [activator, partial curve]

Q: For CCCCn1c(N)c(Br)c(=O)[nH]c1=O, which Potency is on record?
A: inconclusive: 1.16 µM [falling, partial curve, poor fit]

Q: Which Potency does the source give for Cc1cc(C)cc(C(=O)N(Cc2ccco2)c2c(N)n(Cc3ccccc3)c(=O)[nH]c2=O)c1 here?
A: inactive

Q: For N/C(=N\OC(=O)c1ccccc1Cl)c1cccc([N+](=O)[O-])c1, which Potency is on record?
A: inconclusive: 2.31 µM [activator, partial curve]

Q: For CCOc1ccc(CNC(=O)CCCOc2cc(=O)n(C)c3ccccc23)cc1, which Potency is on record?
A: inconclusive: 14.6 µM [falling, partial curve, poor fit]

Q: For O=C1COc2ccc(C(=O)COC(=O)c3ccco3)cc2N1, which Potency is on record?
A: inactive

Q: With O=C(c1cc2nc(-c3ccc(F)cc3)cc(C(F)(F)F)n2n1)N1CCOCC1 as the compound, how does the Potency read?
A: inconclusive: 29.1 µM [activator, single point]

Q: With O=C1c2ccccc2NC(c2ccc(O)c(O)c2)N1c1ccccc1Cl (configuration not stated) as the compound, how does the Potency read?
A: inconclusive: 29.1 µM [activator, single point]

Q: With CCCCC(CCC(=O)Nc1ccc(C(=O)OCC)cc1)C(=O)O (configuration not stated) as the compound, how does the Potency read?
A: inconclusive: 2.59 µM [falling, partial curve, poor fit]

Q: Which Potency does the source give for COc1ccc(OC)c(C(=O)c2ccc(C(=O)Nc3ccc(NC(C)=O)cc3)cc2)c1 here?
A: inconclusive: 9.2 µM [falling, partial curve]

Q: Which Potency does the source give for CCOC(=O)C1(Cc2ccc(OC)cc2)CCN(C(=O)c2cc(C)nn2C)CC1 here?
A: inconclusive: 0.0052 µM [falling, full curve, poor fit]

Q: Which Potency does the source give for O=C(Nc1ccc(F)cc1F)c1cc2nc3c(c(C(F)(F)F)n2n1)CCCC3 here?
A: inconclusive: 1.3 µM [activator, full curve]

Q: For Cc1c(OCC(=O)NCCCn2ccnc2)ccc2c3c(c(=O)oc12)CCC3, which Potency is on record?
A: inconclusive: 13 µM [falling, partial curve, poor fit]

Q: Which Potency does the source give for COC(=O)Nc1ccc(S(=O)(=O)Nc2cccc3ccccc23)cc1 here?
A: inconclusive: 20.6 µM [falling, partial curve]

Q: For Cc1cccc(-n2ncc3c2CCCC3NC(=O)c2ccc[n+]([O-])c2)c1C (configuration not stated), which Potency is on record?
A: inconclusive: 20.6 µM [falling, single point]

Q: For S=C(NCCc1ccncc1)Nc1cccc2ccccc12, which Potency is on record?
A: inconclusive: 0.517 µM [falling, full curve, poor fit]

Q: With O=C(Nc1cccc([N+](=O)[O-])c1)N1CCN(c2ccccc2)CC1 as the compound, how does the Potency read?
A: inconclusive: 13 µM [falling, single point]

Q: For Fc1ccccc1Nc1n[nH]c(=S)s1, which Potency is on record?
A: inactive

Q: For COc1ccc(OC)c(NC(=O)Cc2nn(C)c(=O)c3ccccc23)c1, which Potency is on record?
A: inconclusive: 13 µM [falling, partial curve, poor fit]

Q: Which Potency does the source give for N/C(=N\OC(=O)c1cccc2ccccc12)c1ccncc1 here?
A: inconclusive: 16.4 µM [activator, partial curve]
